Measurements taken from paper PMC12354898, “Collagen VI microfibril structure reveals mechanism for molecular assembly and clustering of inherited pathogenic mutations” (Nature Communications, 2025).

Chains of the proteins cited; added tags and fusions are not shown. Lines headed by an entry give the natural chain unless they say otherwise; changes in a name come on top.
UniProt P12109: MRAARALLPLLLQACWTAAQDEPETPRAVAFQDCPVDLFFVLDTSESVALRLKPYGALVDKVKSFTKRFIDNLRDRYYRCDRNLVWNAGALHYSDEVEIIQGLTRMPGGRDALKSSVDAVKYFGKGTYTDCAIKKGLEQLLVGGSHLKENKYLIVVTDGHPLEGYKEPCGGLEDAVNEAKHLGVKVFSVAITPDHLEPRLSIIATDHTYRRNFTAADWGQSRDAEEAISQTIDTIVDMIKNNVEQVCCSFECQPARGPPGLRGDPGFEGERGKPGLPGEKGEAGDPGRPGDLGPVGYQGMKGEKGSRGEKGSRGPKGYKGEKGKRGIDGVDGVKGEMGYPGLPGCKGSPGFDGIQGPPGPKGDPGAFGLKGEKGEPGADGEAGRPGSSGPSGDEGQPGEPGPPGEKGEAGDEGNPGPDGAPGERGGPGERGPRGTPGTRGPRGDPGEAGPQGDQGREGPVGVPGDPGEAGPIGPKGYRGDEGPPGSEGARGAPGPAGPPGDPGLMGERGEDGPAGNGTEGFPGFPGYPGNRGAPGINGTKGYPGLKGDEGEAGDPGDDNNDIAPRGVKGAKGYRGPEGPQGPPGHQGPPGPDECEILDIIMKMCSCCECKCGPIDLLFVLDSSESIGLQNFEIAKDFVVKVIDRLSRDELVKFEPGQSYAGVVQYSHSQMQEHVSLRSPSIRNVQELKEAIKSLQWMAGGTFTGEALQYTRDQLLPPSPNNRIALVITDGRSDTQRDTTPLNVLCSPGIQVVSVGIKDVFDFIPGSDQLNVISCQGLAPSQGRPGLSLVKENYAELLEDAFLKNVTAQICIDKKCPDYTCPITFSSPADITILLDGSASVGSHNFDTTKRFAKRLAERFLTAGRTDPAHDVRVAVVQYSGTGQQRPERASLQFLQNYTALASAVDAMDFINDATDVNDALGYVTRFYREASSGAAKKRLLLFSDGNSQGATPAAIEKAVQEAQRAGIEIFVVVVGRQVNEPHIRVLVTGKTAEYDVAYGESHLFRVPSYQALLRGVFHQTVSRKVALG
UniProt P12110: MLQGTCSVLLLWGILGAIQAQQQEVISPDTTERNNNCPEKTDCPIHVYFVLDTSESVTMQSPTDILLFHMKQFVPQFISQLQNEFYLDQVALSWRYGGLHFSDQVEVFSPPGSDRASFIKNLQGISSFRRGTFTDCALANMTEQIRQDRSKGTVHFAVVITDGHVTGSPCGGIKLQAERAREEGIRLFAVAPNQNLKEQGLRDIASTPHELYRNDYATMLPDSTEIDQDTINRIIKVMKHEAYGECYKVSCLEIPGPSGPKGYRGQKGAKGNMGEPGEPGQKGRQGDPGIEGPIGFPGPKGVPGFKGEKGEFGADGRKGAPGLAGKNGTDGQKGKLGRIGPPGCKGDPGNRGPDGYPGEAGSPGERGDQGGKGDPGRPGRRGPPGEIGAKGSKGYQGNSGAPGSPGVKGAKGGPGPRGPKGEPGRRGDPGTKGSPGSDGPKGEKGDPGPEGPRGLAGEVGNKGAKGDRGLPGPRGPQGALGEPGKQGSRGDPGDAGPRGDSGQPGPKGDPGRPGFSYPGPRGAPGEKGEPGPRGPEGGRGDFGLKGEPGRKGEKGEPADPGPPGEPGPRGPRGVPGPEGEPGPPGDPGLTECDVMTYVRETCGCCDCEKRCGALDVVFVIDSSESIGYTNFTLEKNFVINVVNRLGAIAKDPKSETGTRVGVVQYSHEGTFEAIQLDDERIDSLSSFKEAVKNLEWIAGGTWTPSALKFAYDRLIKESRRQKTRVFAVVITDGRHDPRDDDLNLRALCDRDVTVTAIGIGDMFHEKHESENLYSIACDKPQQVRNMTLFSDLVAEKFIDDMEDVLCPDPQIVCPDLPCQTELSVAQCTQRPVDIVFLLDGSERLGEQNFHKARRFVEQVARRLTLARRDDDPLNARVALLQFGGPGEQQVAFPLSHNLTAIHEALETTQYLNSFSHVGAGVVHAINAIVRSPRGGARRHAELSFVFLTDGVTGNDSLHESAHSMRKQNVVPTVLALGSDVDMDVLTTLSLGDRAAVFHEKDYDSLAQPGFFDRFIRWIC
UniProt P12111: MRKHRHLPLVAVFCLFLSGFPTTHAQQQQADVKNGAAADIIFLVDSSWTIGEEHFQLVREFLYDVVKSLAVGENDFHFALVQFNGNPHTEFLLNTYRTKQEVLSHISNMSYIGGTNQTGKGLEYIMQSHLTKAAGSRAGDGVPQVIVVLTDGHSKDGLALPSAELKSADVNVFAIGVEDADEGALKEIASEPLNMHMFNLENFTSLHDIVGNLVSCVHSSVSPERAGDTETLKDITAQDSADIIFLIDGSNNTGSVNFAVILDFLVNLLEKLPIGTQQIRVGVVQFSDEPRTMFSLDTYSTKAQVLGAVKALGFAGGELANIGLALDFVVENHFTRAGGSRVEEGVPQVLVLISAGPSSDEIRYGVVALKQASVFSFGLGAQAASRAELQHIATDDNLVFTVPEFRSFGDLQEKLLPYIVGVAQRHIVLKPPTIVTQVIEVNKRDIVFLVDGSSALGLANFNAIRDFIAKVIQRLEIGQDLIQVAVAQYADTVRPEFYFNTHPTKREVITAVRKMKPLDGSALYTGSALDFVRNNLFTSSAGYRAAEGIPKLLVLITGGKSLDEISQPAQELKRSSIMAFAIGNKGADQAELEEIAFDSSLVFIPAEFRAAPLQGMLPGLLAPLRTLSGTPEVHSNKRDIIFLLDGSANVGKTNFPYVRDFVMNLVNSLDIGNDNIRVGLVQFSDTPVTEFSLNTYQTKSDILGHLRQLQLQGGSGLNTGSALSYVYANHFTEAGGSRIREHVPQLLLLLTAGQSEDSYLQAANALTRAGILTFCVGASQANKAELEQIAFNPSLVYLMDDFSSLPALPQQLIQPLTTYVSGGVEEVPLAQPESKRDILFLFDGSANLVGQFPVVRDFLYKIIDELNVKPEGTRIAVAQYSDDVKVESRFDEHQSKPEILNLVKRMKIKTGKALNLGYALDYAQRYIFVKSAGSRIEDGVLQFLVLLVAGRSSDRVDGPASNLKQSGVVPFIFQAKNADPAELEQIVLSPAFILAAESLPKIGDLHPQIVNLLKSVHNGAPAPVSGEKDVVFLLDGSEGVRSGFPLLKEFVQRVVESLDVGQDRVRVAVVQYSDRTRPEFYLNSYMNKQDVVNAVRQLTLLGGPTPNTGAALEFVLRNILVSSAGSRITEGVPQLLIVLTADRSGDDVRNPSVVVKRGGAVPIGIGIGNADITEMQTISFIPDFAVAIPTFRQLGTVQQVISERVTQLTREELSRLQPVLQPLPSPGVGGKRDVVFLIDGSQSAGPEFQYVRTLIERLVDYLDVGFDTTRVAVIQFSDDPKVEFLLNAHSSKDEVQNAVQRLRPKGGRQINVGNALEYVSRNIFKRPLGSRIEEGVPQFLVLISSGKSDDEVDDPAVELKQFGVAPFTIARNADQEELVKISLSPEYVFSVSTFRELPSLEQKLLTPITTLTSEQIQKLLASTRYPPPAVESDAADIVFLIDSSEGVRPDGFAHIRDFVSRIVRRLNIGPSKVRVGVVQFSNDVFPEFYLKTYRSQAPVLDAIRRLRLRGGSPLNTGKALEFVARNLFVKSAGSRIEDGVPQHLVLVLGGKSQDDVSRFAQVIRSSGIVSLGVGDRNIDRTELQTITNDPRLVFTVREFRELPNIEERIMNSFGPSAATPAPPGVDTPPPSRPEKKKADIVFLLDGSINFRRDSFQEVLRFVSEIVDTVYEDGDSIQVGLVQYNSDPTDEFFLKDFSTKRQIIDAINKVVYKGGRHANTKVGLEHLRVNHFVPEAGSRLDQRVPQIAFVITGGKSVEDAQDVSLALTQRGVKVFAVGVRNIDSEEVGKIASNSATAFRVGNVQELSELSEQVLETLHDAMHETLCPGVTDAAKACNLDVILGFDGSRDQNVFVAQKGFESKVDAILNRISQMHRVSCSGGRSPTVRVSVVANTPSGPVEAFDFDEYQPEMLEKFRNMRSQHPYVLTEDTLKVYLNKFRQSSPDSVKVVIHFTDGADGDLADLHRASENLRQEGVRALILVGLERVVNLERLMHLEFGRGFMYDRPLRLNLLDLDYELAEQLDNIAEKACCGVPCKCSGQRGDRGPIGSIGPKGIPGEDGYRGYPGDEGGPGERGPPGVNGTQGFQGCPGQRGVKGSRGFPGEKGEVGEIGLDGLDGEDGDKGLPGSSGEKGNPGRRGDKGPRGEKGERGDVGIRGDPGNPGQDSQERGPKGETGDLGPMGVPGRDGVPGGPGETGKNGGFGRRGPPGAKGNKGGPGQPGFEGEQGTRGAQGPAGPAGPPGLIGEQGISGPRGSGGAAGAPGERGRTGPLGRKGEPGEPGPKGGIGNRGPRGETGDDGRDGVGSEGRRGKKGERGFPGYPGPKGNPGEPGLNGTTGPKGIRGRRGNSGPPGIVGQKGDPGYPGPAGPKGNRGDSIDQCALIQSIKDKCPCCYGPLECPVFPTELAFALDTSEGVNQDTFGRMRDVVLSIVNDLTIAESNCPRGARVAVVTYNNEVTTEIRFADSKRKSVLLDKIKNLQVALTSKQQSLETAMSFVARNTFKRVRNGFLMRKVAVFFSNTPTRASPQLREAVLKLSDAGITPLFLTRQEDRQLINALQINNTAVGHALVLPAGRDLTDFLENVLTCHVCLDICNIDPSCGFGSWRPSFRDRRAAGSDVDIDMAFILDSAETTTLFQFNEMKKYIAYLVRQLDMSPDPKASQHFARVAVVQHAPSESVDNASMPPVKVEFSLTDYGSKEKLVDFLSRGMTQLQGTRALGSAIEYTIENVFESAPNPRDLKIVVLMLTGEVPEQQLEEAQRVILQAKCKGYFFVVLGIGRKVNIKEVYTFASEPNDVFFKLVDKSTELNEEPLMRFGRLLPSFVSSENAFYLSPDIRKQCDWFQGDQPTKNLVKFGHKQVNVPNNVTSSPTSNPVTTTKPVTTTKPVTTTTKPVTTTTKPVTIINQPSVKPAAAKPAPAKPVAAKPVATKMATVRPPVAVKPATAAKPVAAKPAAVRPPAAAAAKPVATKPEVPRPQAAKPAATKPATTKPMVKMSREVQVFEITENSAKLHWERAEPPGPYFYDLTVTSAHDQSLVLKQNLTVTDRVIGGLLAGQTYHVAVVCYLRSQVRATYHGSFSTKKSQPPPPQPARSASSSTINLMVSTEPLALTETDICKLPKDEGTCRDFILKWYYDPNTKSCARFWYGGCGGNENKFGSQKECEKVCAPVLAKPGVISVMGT

How the values were obtained:
[1] = target: mini-collagen VI α1 chain truncated after the C1 vWA domain (α1 chain of α1α2α3^C1) (human) (UniProt P12109); assay: SEC-MALS; purified heterotrimer on Superdex 200 or Superose 6 in HBS (20 mM HEPES, 150 mM NaCl, pH 7.4), 0.75 mL/min; both purified
[2] = target: mini-collagen VI α2 chain truncated after the C1 vWA domain (α2 chain of α1α2α3^C1) (human) (UniProt P12110); assay: as above
[3] = target: mini-collagen VI α1 chain truncated after the C1 vWA domain (α1 chain of α1α2α3^C1) (human) (UniProt P12109); assay: pull-down; three chains co-expressed in Expi293F; sequential affinity steps from conditioned media (Strep-Tactin XT for Twin-Strep α2, Ni-Sepharose for His α1, anti-FLAG M2 for α3; Fig. 5f: Twin-strep then His-tag); eluates on reduced and non-reduced SDS-PAGE
[4] = target: mini-collagen VI α2 chain truncated after the C1 vWA domain (α2 chain of α1α2α3^C1) (human) (UniProt P12110); assay: as above
[5] = target: mini-collagen VI α1 chain truncated after the C1 vWA domain (α1 chain of α1α2α3^C1) (human) (UniProt P12109); assay: negative-stain TEM; purified α1α2α3^C1 heterotrimer on carbon-coated grids, 2% uranyl acetate; both purified
[6] = target: mini-collagen VI α2 chain truncated after the C1 vWA domain (α2 chain of α1α2α3^C1) (human) (UniProt P12110); assay: as above

Measured: binding

mini-collagen VI α3 chain truncated after the C1 vWA domain (α3 chain of α1α2α3^C1) (from UniProt P12111) (domain or fragment)
binds: all assays above

mini-collagen VI α1 chain truncated after the C1 vWA domain (α1 chain of α1α2α3^C1) (from UniProt P12109) (domain or fragment)
binds: [2] | [4] | [6]

No constants are given. Whether binding was seen depends on the method and setting. Binding calls can cover weak binding; strength is not graded here. For part of these data: In cells and extracts the contact can be indirect.
